Data from PubChem BioAssay AID445 (National Center for Advancing Translational Sciences (NCATS), 2006).
The list shows a part of the results. The main result of the screen is listed elsewhere. These columns were measured beside it and carry no call. The list favours compounds with an active or inconclusive main result. The note in brackets gives the kind of curve behind each potency; many fits are weak.

Test: IkB Signaling
Settings: ABC-DLBCL IkBa-CBG/CBR dual luciferase ratio (green luciferase fused to IkBa over red control in OCI-Ly3 lymphoma cells), 4 h; measured here: control luc red channel unless noted
Procedure, shortened: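 Luminescence ratio of IκBα-fused green versus native red beetle luciferase in OCI-Ly3 cells, 4 h post-doxycycline with compound; red signal alone, scaled from basal (0%) to zero light (-100%), flagged nonspecific or cytotoxic effects.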

Structure (SMILES)	AC50
COc1ccc(CCNC(=O)CCc2cn(Cc3ccccc3Cl)c3ccccc23)c(OC)c1	15.8 µM [falling, partial curve]
O=C(Nc1ccccc1)c1cccc(N2CCCC2=O)c1	3.98 µM [falling, full curve]
Cc1cc(C)c(NC(=O)Cn2c(=O)oc3cc(S(=O)(=O)N4CCCCCC4)ccc32)c(C)c1	6.31 µM [falling, partial curve]
COc1ccc(F)cc1CN1CCN(c2cc(C)nc3c4c(C)cc(C)nc4nn23)CC1	12.6 µM [falling, partial curve]
Cc1ccnc(NC(=O)Nc2ccc3c(c2)N(C)C(=O)CS3)c1	6.31 µM [falling, full curve]
Cc1cc(Cl)ccc1-n1c(CCC(=O)O)ccc1-c1cccs1	20 µM [falling, partial curve]
COC(=O)COc1ccc(-c2nnc(Nc3ccc(O)cc3)c3ccccc23)cc1	3.98 µM [falling, full curve]
Cc1cccc2c1-c1sc(C(=O)Nc3ccc(F)cc3F)cc1CO2	0.02 µM [falling, full curve]
O=c1c2sc3ccccc3c2n(Cc2cccc(F)c2)c(=O)n1CCc1ccccc1	12.6 µM [falling, partial curve]
CCN(CC)C(=O)Cn1c(=O)n(CCCCCC(=O)NCc2ccc3c(c2)OCO3)c(=O)c2sccc21	1.58 µM [rising, partial curve]
Cc1c(C(=O)Nc2ccccc2)sc2nc(-c3ccccc3)cn12	10 µM [falling, partial curve]
CCOc1ccc(N(C)C(=O)c2oc(=O)c3ccccc3c2-c2ccccc2)cc1	25.1 µM [falling, partial curve]
COCc1cc(=O)n2[nH]c(-c3ccccc3)cc2n1	3.98 µM [falling, full curve]
O=C(O)CC1c2ccccc2CCN1C(=O)Nc1cc(Cl)ccc1Cl (stereo not given)	20 µM [falling, partial curve]
Cc1ccc(N(CC(=O)N2CCN(c3cc(C)ccc3C)CC2)S(=O)(=O)c2c(C)nn(C)c2C)cc1	15.8 µM [falling, partial curve]
O=c1cc(CSc2nnc(-c3cccs3)n2Cc2ccccc2)nc2sc3ccccc3n12	7.94 µM [falling, partial curve]
Cc1ccc2cc(CN(Cc3ccc4c(c3)OCO4)Cc3nnnn3Cc3ccco3)c(=O)[nH]c2c1	15.8 µM [falling, partial curve]
COc1ccc(-n2c(C)cc(C(=O)Cn3c(NCCO)nc4ccccc43)c2C)cc1	20 µM [falling, partial curve]
CCOC(=O)C1CCN(C(=O)c2cc3sc(C)cc3n2C)CC1	39.8 µM [falling, single point]
CCCCN(CC)C(=O)CSc1nc2n[nH]c(C)c2c(=N)n1-c1ccc(CC)cc1	10 µM [falling, partial curve]

As a working copy, some entries already given:
Structure (SMILES)	AC50
O=C(Nc1ccccc1)c1cccc(N2CCCC2=O)c1	3.98 µM [falling, full curve]
Cc1cc(C)c(NC(=O)Cn2c(=O)oc3cc(S(=O)(=O)N4CCCCCC4)ccc32)c(C)c1	6.31 µM [falling, partial curve]

(list continues)

Structure (SMILES)	AC50
COc1ccc(NC(=O)CSc2ncc3c(n2)-c2ccccc2N(Cc2ccc(C)cc2)S3(=O)=O)cc1Cl	3.16 µM [rising, partial curve]
Cc1ccc(N(C)C(=O)c2sc3nc4n(c(=O)c3c2C)CCCC4)cc1C	15.8 µM [falling, partial curve]
COCCCn1c(=O)c2sccc2n2c(CCCC(=O)NCc3cccc(OC)c3)nnc12	31.6 µM [falling, single point]
COC(=O)c1ccc(C2C(C#N)=C(C)NC3=C2C(=O)CC(C)(C)C3)cc1 (stereo not given)	3.98 µM [falling, full curve]
O=C(CSc1ncc(-c2ccccc2)[nH]1)Nc1ccccc1	7.94 µM [falling, full curve, poor fit]
CC(C)(C)c1ccc(C(=O)CCCSC2=C(C#N)C(c3ccco3)C3=C(CCCC3=O)N2)cc1 (stereo not given)	12.6 µM [falling, partial curve]
Clc1ccc(OCc2nnc(-c3ccccc3Br)o2)cc1	39.8 µM [falling, single point]
CCCCOc1ccc(C(=O)Nc2ccc3c(c2)CCCN3C(=O)c2cccs2)cc1	6.31 µM [falling, partial curve]
O=C(CCC1N=C2c3ccccc3N=C(SCC(=O)Nc3cccc(Cl)c3)N2C1=O)NCc1ccco1 (stereo not given)	10 µM [falling, partial curve, poor fit]
Cc1cc(C)cc(OCC(=O)Nc2cccc3cccnc23)c1	39.8 µM [falling, partial curve]
CCCc1cnc2c(c1SCC(=O)NCc1ccc(C)cc1)c(=O)n(C)c(=O)n2C	20 µM [falling, partial curve, poor fit]
CCOC(=O)c1ccc(N2C(=O)c3n[nH]c(-c4ccco4)c3C2c2ccc(C(=O)OC)cc2)cc1 (stereo not given)	25.1 µM [falling, single point]
COc1ccccc1CCNC(=O)Cc1c(C)c2cc(Cl)c(O)cc2oc1=O	15.8 µM [falling, partial curve]
CCCCn1c(NC(=O)c2ccccc2)nc2ccccc21	12.6 µM [rising, partial curve] [measured here: IkB-luc green channel]
CCCCOc1ccccc1C1CC(=O)Nc2ccc3ccccc3c21 (stereo not given)	39.8 µM [falling, single point]
CCOc1ccc(CNC(=O)c2oc3c(c2C)-c2nn(Cc4cccc(Cl)c4)cc2CC3)cc1	12.6 µM [falling, partial curve]
O=C(Nc1ccc2c(c1)oc1ccccc12)c1ccc2c(c1)OCO2	3.16 µM [falling, full curve]
COc1ccc(C)c2sc(NC(=O)c3ccc(S(=O)(=O)N(C)C)cc3)nc12	0.0251 µM [falling, full curve]
CCc1ccc(NC(=O)CN2C(=O)C(c3ccc(C)cc3)=NC23CCCCC3)cc1	10 µM [falling, single point]
CCCCOc1ccc(C2=NC(c3ccncc3)=Nc3ccc(OCC)cc3N2)cc1	20 µM [falling, partial curve]
